Earlier results as cited in US5393777A, “Deferration using anguibactin siderophore” (State of Oregon Acting by and through the State Board of …, priority 1990, dated 1995).
For at least one compound, name, drawing or mass did not settle the structure. Non-standard residues stand in square brackets, D forms with d. Residues, ends and D or L forms follow the SMILES beside them. Orn(N5-OH,N5-Ac) = CC(=O)N(O)CCC[C@H](N)C(=O)O

Tests used:
[1] = cited from earlier work
[2] = cited from earlier work; remark: listed apart in the source

SMILES: CC(=O)N([O-])CCC[C@@H]1NC(=O)CNC(=O)CNC(=O)CNC(=O)[C@H](CCCN([O-])C(C)=O)NC(=O)[C@H](CCCN([O-])C(C)=O)NC1=O.[Fe+3] [ferrichrome] (cyclo(GGG[Orn(N5-OH,N5-Ac)][Orn(N5-OH,N5-Ac)][Orn(N5-OH,N5-Ac)]))
- binding of Fe(III) and Ga(III) by other siderophores: Fe(III) [1]: bind Fe(III)
- binding of Fe(III) and Ga(III) by other siderophores: Ga(III) [2]: bind Fe(III) and Ga(III)
